Laboratory results published in paper PMC9217730.
Results are given in words; binding and its absence hold for the method and conditions named. Binding seen in cells or lysates may run through a third protein. Some entries that bind do so weakly or less than the wild type.

Amino acid sequences for entries named in this document (tags omitted).
UniProt Q96EB6: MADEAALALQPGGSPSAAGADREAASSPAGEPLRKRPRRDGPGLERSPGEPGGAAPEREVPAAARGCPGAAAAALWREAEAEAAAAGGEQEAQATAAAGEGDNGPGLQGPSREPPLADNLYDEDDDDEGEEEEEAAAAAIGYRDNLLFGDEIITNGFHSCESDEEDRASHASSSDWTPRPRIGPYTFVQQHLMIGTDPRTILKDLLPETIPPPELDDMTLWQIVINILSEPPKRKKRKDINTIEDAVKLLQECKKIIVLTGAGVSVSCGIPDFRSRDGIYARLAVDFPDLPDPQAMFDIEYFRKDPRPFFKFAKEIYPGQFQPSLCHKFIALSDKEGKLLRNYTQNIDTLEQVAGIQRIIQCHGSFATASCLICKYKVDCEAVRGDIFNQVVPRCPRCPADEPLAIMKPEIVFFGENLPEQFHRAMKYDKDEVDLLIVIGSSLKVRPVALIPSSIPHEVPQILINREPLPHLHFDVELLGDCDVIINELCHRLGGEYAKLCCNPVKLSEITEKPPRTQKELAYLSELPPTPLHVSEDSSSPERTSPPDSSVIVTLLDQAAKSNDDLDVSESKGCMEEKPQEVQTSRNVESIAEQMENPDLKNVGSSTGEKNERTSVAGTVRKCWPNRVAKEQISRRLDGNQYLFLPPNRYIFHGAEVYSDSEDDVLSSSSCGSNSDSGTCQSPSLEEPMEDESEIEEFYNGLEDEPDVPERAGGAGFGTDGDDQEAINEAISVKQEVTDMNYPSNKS

Molecular target: HA-SIRT1 (NAD-dependent deacetylase Sirtuin 1, full-length) (human) (UniProt Q96EB6)
Test: co-IP

## Flag-NSP14 (SARS-CoV-2 nonstructural protein 14, full-length) (from UniProt P0DTD1 5926-6452)
  binding: binds
